Structures can show the parent of a compound that is named as a salt. This is one part of the list. This data set is noisy: repeats of one test often differ as much as different tests do.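 A screen tested FDA-approved drugs combined with one-eighth-MIC colistin against a clinical mcr-1-positive, multidrug-resistant E. coli isolate, measuring OD600 at 24 h. Controls were untreated bacteria (growth) and broth alone (blank). An OD600 under 0.2 marked a combination as active.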

The subject of the assay is Escherichia coli 42 (mcr-1-positive clinical isolate). Nature of the assay: OD600 after 24 h growth with compound plus colistin (absorbance units (OD600)); higher = more bacterial growth (less inhibition). As to conditions: first compound 25 µM; colistin concentration 0.5 ug/mL; incubation time 24 h; 37 °C.
Consider `c1ccc2c(CC3=NCCN3)cccc2c1` [Naphazoline hydrochloride] + CCC(C)CCCC(=O)N[C@@H](CCN)C(=O)N[C@H](C(=O)N[C@@H](CCN)C(=O)N[C@H]1CCNC(=O)[C@H]([C@@H](C)O)NC(=O)[C@H](CCN)NC(=O)[C@H](CCN)NC(=O)[C@H](CC(C)C)NC(=O)[C@@H](CC(C)C)NC(=O)[C@H](CCN)NC1=O)[C@@H](C)O [colistin], for which the OD600 is inactive: 1.1.

As to `Nc1nnc(-c2cccc(Cl)c2Cl)c(N)n1` [Lamotrigine] + CCC(C)CCCC(=O)N[C@@H](CCN)C(=O)N[C@H](C(=O)N[C@@H](CCN)C(=O)N[C@H]1CCNC(=O)[C@H]([C@@H](C)O)NC(=O)[C@H](CCN)NC(=O)[C@H](CCN)NC(=O)[C@H](CC(C)C)NC(=O)[C@@H](CC(C)C)NC(=O)[C@H](CCN)NC1=O)[C@@H](C)O [colistin], the OD600 was inactive: 1.11. In the case of `CN(C/C=C/c1ccccc1)Cc1cccc2ccccc12` [Naftifine hydrochloride] + CCC(C)CCCC(=O)N[C@@H](CCN)C(=O)N[C@H](C(=O)N[C@@H](CCN)C(=O)N[C@H]1CCNC(=O)[C@H]([C@@H](C)O)NC(=O)[C@H](CCN)NC(=O)[C@H](CCN)NC(=O)[C@H](CC(C)C)NC(=O)[C@@H](CC(C)C)NC(=O)[C@H](CCN)NC1=O)[C@@H](C)O [colistin], the OD600 is inactive: 1.07. For `N[C@@H](Cc1cc(I)c(Oc2ccc(O)c(I)c2)c(I)c1)C(=O)O` [Liothyronine sodium] + CCC(C)CCCC(=O)N[C@@H](CCN)C(=O)N[C@H](C(=O)N[C@@H](CCN)C(=O)N[C@H]1CCNC(=O)[C@H]([C@@H](C)O)NC(=O)[C@H](CCN)NC(=O)[C@H](CCN)NC(=O)[C@H](CC(C)C)NC(=O)[C@@H](CC(C)C)NC(=O)[C@H](CCN)NC1=O)[C@@H](C)O [colistin] the value was inactive: 1.04. In the case of `CCOC(=O)c1ncn2c1CN(C)C(=O)c1cc(F)ccc1-2` [Flumazenil] + CCC(C)CCCC(=O)N[C@@H](CCN)C(=O)N[C@H](C(=O)N[C@@H](CCN)C(=O)N[C@H]1CCNC(=O)[C@H]([C@@H](C)O)NC(=O)[C@H](CCN)NC(=O)[C@H](CCN)NC(=O)[C@H](CC(C)C)NC(=O)[C@@H](CC(C)C)NC(=O)[C@H](CCN)NC1=O)[C@@H](C)O [colistin], the OD600 was inactive: 1.09. Consider `Cc1c(Nc2ncccc2C(=O)O)cccc1C(F)(F)F` [Flunixin meglumine] + CCC(C)CCCC(=O)N[C@@H](CCN)C(=O)N[C@H](C(=O)N[C@@H](CCN)C(=O)N[C@H]1CCNC(=O)[C@H]([C@@H](C)O)NC(=O)[C@H](CCN)NC(=O)[C@H](CCN)NC(=O)[C@H](CC(C)C)NC(=O)[C@@H](CC(C)C)NC(=O)[C@H](CCN)NC1=O)[C@@H](C)O [colistin], for which the OD600 is inactive: 1.06. For `CC/C(=C(/CC)c1ccc(O)cc1)c1ccc(O)cc1` [Diethylstilbestrol] + CCC(C)CCCC(=O)N[C@@H](CCN)C(=O)N[C@H](C(=O)N[C@@H](CCN)C(=O)N[C@H]1CCNC(=O)[C@H]([C@@H](C)O)NC(=O)[C@H](CCN)NC(=O)[C@H](CCN)NC(=O)[C@H](CC(C)C)NC(=O)[C@@H](CC(C)C)NC(=O)[C@H](CCN)NC1=O)[C@@H](C)O [colistin], the OD600 is active: 0.035. Consider `CCN1CCN(Cc2ccc(Nc3ncc(F)c(-c4cc(F)c5nc(C)n(C(C)C)c5c4)n3)nc2)CC1` [Abemaciclib] + CCC(C)CCCC(=O)N[C@@H](CCN)C(=O)N[C@H](C(=O)N[C@@H](CCN)C(=O)N[C@H]1CCNC(=O)[C@H]([C@@H](C)O)NC(=O)[C@H](CCN)NC(=O)[C@H](CCN)NC(=O)[C@H](CC(C)C)NC(=O)[C@@H](CC(C)C)NC(=O)[C@H](CCN)NC1=O)[C@@H](C)O [colistin], for which the OD600 is inactive: 1.07. For `CSc1ccc2c(c1)N(CCC1CCCCN1C)c1ccccc1S2` (stereo unspecified) [Thioridazine hydrochloride] + CCC(C)CCCC(=O)N[C@@H](CCN)C(=O)N[C@H](C(=O)N[C@@H](CCN)C(=O)N[C@H]1CCNC(=O)[C@H]([C@@H](C)O)NC(=O)[C@H](CCN)NC(=O)[C@H](CCN)NC(=O)[C@H](CC(C)C)NC(=O)[C@@H](CC(C)C)NC(=O)[C@H](CCN)NC1=O)[C@@H](C)O [colistin], the OD600 is inactive: 0.885. `CCN(CC)CCOC(=O)c1ccc(N)cc1` [Procaine hydrochloride] + CCC(C)CCCC(=O)N[C@@H](CCN)C(=O)N[C@H](C(=O)N[C@@H](CCN)C(=O)N[C@H]1CCNC(=O)[C@H]([C@@H](C)O)NC(=O)[C@H](CCN)NC(=O)[C@H](CCN)NC(=O)[C@H](CC(C)C)NC(=O)[C@@H](CC(C)C)NC(=O)[C@H](CCN)NC1=O)[C@@H](C)O [colistin]: the OD600 was inactive: 0.99. Regarding `OC[C@H]1O[C@@H](O[C@@H]2[C@@H](CO)OC(O)(CO)[C@H]2O)[C@H](O)[C@@H](O)[C@H]1O` (mixture of isomers) [Lactulose] + CCC(C)CCCC(=O)N[C@@H](CCN)C(=O)N[C@H](C(=O)N[C@@H](CCN)C(=O)N[C@H]1CCNC(=O)[C@H]([C@@H](C)O)NC(=O)[C@H](CCN)NC(=O)[C@H](CCN)NC(=O)[C@H](CC(C)C)NC(=O)[C@@H](CC(C)C)NC(=O)[C@H](CCN)NC1=O)[C@@H](C)O [colistin], the OD600 is inactive: 1.13.

As for `C=CC1=C(C(=O)O)N2C(=O)[C@@H](NC(=O)/C(=N\O)c3csc(N)n3)[C@H]2SC1` [Cefdinir] + CCC(C)CCCC(=O)N[C@@H](CCN)C(=O)N[C@H](C(=O)N[C@@H](CCN)C(=O)N[C@H]1CCNC(=O)[C@H]([C@@H](C)O)NC(=O)[C@H](CCN)NC(=O)[C@H](CCN)NC(=O)[C@H](CC(C)C)NC(=O)[C@@H](CC(C)C)NC(=O)[C@H](CCN)NC1=O)[C@@H](C)O [colistin], the OD600 was inactive: 0.246.

For the molecule `O=C1c2c(O)ccc(O)c2C(=O)c2c(NCCNCCO)ccc(NCCNCCO)c21` [Mitoxantrone dihydrochloride] + CCC(C)CCCC(=O)N[C@@H](CCN)C(=O)N[C@H](C(=O)N[C@@H](CCN)C(=O)N[C@H]1CCNC(=O)[C@H]([C@@H](C)O)NC(=O)[C@H](CCN)NC(=O)[C@H](CCN)NC(=O)[C@H](CC(C)C)NC(=O)[C@@H](CC(C)C)NC(=O)[C@H](CCN)NC1=O)[C@@H](C)O [colistin], the OD600 is inactive: 1.01. Then `CO/N=C(\C(=O)N[C@@H]1C(=O)N2C(C(=O)O)=C(COC(N)=O)CS[C@H]12)c1ccco1` [Cefuroxime sodium] + CCC(C)CCCC(=O)N[C@@H](CCN)C(=O)N[C@H](C(=O)N[C@@H](CCN)C(=O)N[C@H]1CCNC(=O)[C@H]([C@@H](C)O)NC(=O)[C@H](CCN)NC(=O)[C@H](CCN)NC(=O)[C@H](CC(C)C)NC(=O)[C@@H](CC(C)C)NC(=O)[C@H](CCN)NC1=O)[C@@H](C)O [colistin], with active: 0.036; and `COCCCN1CCC(NC(=O)c2cc(Cl)c(N)c3c2OCC3)CC1` [Prucalopride] + CCC(C)CCCC(=O)N[C@@H](CCN)C(=O)N[C@H](C(=O)N[C@@H](CCN)C(=O)N[C@H]1CCNC(=O)[C@H]([C@@H](C)O)NC(=O)[C@H](CCN)NC(=O)[C@H](CCN)NC(=O)[C@H](CC(C)C)NC(=O)[C@@H](CC(C)C)NC(=O)[C@H](CCN)NC1=O)[C@@H](C)O [colistin], with inactive: 1.04. As to `Oc1c(I)cc(Cl)c2cccnc12` [Clioquinol] + CCC(C)CCCC(=O)N[C@@H](CCN)C(=O)N[C@H](C(=O)N[C@@H](CCN)C(=O)N[C@H]1CCNC(=O)[C@H]([C@@H](C)O)NC(=O)[C@H](CCN)NC(=O)[C@H](CCN)NC(=O)[C@H](CC(C)C)NC(=O)[C@@H](CC(C)C)NC(=O)[C@H](CCN)NC1=O)[C@@H](C)O [colistin], the OD600 is inactive: 0.975.

For the origin of these results see the supplement of paper PMC11546906.
